Experimental data taken from patent US20240254227A1.
These are yes or no findings as the source states them, for the method shown. Some results given as binding are weak or reduced against the parent protein; the word gives no strength.

Amino acid sequences for entries named in this document (tags omitted). A change or cut given only in a name is not applied to a line headed by its entry.
UniProt A8K4G0: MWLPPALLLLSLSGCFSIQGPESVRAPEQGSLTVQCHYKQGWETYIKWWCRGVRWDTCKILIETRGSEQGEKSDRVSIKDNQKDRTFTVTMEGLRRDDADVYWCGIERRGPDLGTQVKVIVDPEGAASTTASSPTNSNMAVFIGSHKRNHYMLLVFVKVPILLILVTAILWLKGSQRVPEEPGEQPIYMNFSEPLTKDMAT

T1: recombinant murine CD300LB overexpressed on BaF/3 cells (mouse) (UniProt Q3U497)
T1 sequence: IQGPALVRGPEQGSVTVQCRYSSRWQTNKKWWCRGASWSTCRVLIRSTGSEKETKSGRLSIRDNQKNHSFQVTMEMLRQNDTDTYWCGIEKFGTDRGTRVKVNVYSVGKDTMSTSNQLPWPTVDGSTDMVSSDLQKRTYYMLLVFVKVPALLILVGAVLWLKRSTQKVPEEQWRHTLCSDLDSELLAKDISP

T2: murine CD300LB on wild type mouse bone marrow macrophages (mouse) (UniProt Q3U497)
T2 sequence: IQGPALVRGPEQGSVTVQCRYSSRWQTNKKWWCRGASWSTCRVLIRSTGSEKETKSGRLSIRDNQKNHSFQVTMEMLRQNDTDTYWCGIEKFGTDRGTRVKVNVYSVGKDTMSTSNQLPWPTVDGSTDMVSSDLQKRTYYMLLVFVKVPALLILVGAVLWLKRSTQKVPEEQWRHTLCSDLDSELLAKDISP


How the values were obtained:
[1] = biological target: recombinant human CD300LB overexpressed on Jurkat cells (human) (UniProt A8K4G0); experiment: flow cytometry, geometric mean (APC-A), Jurkat cells overexpressing huCD300LB
[2] = biological target: recombinant human CD300LB overexpressed on Jurkat cells (human) (UniProt A8K4G0); experiment: flow cytometry, stable Jurkat cells
[3] = biological target: murine CD300LB stably expressed on Jurkat cells (mouse) (UniProt Q3U497); experiment: flow cytometry, stable Jurkat cells
[4] = biological target: T1, recombinant murine CD300LB overexpressed on BaF/3 cells (mouse); experiment: flow cytometry, BaF/3 cells overexpressing muCD300LB
[5] = biological target: murine CD300LB-Fc (mouse); experiment: SPR (Carterra LSA), antibody immobilised
[6] = biological target: T2, murine CD300LB on wild type mouse bone marrow macrophages (mouse); experiment: flow cytometry, mouse bone marrow macrophages

Binder | binding [1] | binding [2] | binding [3] | also measured
anti-CD300LB antibody CD-05 (antibody, V domains shown) VH: QVQLVQSGAEVKKPGASVKVSCKASGYTFSRYYINWVRQAPGQGLEWMGWINPNSGGTNYAQKFQGRVTMTRDTSTSTVYMELSSLRSEDTAVYYCTTDQLRFGKTGPYYGMDVWGQGTTVTVSS VL: DIQMTQSPSSLSASVGDRVTITCRASQNIGTYLNWYQQKPGKAPKLLIYAASSLQSGVPSRFSGSGSGTDFTLTISSLQPEDFATYYCQQSYSDTLTFGGGTKVEIK | binds | – | – | –
anti-CD300LB antibody CD-08 (antibody, V domains shown) VH: EVQLLESGGGLVQPGGSLRLSCAASGFTFSNAWMSWVRQAPGKGLEWVSVISGSGGRTYYADSVKGRFTISRDNSKNTLYLQMNSLRAEDTAVYYCARDGTTVAPKGMDVWGQGTTVTVSS VL: DIQMTQSPSSLSASVGDRVTITCQASQDINNYVNWYQQKPGKAPKLLIYAASNLQSGVPSRFSGSGSGTDFTLTISSLQPEDFATYYCQQSYSPPYTFGQGTKLEIK | binds | – | – | –
anti-CD300LB antibody CD-07 (antibody, V domains shown) VH: QVQLVQSGAEVKKPGASVKVSCKASGYTFTNYRMHWVRQAPGQGLEWMGWINPNSGGTIYAQKFQGRVTMTRDTSTSTVYMELSSLRSEDTAVYYCARDLDYWGQGTLVTVSS VL: DIQMTQSPSSLSASVGDRVTITCQASQDISNYLNWYQQKPGKAPKLLIYGASSLQSGVPSRFSGSGSGTDFTLTISSLQPEDFATYYCQQSYSTPWTFGPGTKVEIK | binds | – | – | –
anti-CD300LB antibody CD-01 (antibody, V domains shown) VH: RVQLQQSGAELVRPGASVTLSCKASGFTFTDFEMHWVKKTPVHGLEWIGAIDPESGNTAYNQKFRGKATLTADKSSSTAYMELRYLTSEDSAVYYCTPLISGADYWGQGTTLTVSS VL: DVVMTQSPLSLPVSLGDQASISCRSSQSLVHSDGNTYLYWYLQKPGQSPKLLIYKVSNRFSGVPDRFSGSGSGTDFTFKISRVGAEDLGVYFCSQSTHVPWTFGGGTKLEII | binds | binds | binds | –
anti-CD300LB antibody CD-04 (antibody, V domains shown) VH: QVQLQQSGAELVRPGASVTLSCRASGYTFTDFEMHWVKQTPLHGLEWIGAIAPETGGTAYNQKFKGKAILTADKSSSTAYVELRSLTSEDSAVYFCTRLGGMDYWGQGTSVTVSS VL: DVVMTQTPLSLPVSLGDQASISCRSSQTLVHNNGNTYLYWYLQKPGQSPKLLIYQVSNRFFGVPDRFSGSGSGTDFTLKISRVEAEDLGLYFCSQSTHVPWTFGGGTKLEIK | binds | binds | – | –
anti-CD300LB antibody CD-06 (antibody, V domains shown) VH: QVQLVQSGAEVKKPGASVKVSCKASGYTFTTYAVHWVRQAPGQGLEWMGIVNPNSGGTNYAQKFQGRVTMTRDTSTSTVYMELSSLRSEDTAVYYCARDIVPMNNFYNYYYGMDVWGQGTTVTVSS VL: DIQMTQSPSSLSASVGDRVTITCRASQSISSYLNWYQQKPGKAPKLLIYATSTLQSGVPSRFSGSGSGTDFTLTISSLQPEDFATYYCQQSYRIPYTFGQGTKVEIK | binds | binds | – | –
anti-CD300LB antibody CD-09 (antibody, V domains shown) VH: QVQLVQSGAEVKKPGASVKVSCKASGYTFTTYAVHWVRQAPGQGLEWMGIINPNSGGTNYAQKFQGRVTMTRDTSTSTVYMELSSLRSEDTAVYYCARDIVPMNNFYNYYYGMDVWGQGTTVTVSS VL: DIQMTQSPSSLSASVGDRVTITCRASQSISSYLNWYQQKPGKAPKLLIYATSTLQSGVPSRFSGSGSGTDFTLTISSLQPEDFATYYCQQSYRIPYTFGQGTKVEIK | binds | – | – | –
anti-CD300LB antibody CD-13 (antibody, V domains shown) VH: QIQLVQSGPELKKPGETVKISCKASGYTFTDYSMHWVKQAPGKGFKWMAWINTETGAPTHADDFRGRFAFSLETSASTAFLQISNLKTEDTATYFCVTFGKSYGMNYWGQGTSVTVSS VL: DIVLTQSPASLSVSLGQRATISCRASKSVGSSGSSYLHWYQQKPGQPPKLLIYLASNLESGVPARFSGSGSGTEFTLNIHPVEEEDAATYYCQHNAEVPPTFGGGTKLEIK | – | binds | binds | –
anti-CD300LB antibody CD-14 (antibody, V domains shown) VH: QIQLVQSGPELKKPGETVKISCKASGYTFTDYSLHWVKQTPEKNLKWMAWINTETGAPTYADDFKGRFAFSLETSSNTAYLLINNLKNEDTATYFCALTMVNYWGQGTTLTVSS VL: DIVMTQSQKFMSTSVGDRVSVTCKASQNVGIRVAWHQQKPGQSPKTLIYSTSYRYSGVPDRFTGSGSGTEFILTISNVQSEDLAEYFCQQYNSYPYTFGGGTKLEIK | – | binds | binds | –
anti-CD300LB antibody CD-18 (antibody, V domains shown) VH: DVQLQESGPDLVKPSQSLSLTCTVTGYSITSGYSWHWIRQFPDNKLEWMGYILSRGDTNFNPSLKSRISITRSTSNNQFFLHFNSVTTEDTATYYCARDFFDYWGQGTTLTVSS VL: DVLMTQTPLSLPVSLGDQASISCRSSQSIVHSNGNTYLEWYLQKPGQSPKLLIYKVSDRFSGVPDRFSGSGSGTDFTLKISRVEAEDLGVYFCFQGSHVPYTFGGGTKLEIK | – | binds | binds | –
anti-CD300LB antibody CD-12 (antibody, V domains shown) VH: QIQLVQSGPELKKPGETVKISCKASGYTFTDYSMHWVRQAPGKGLKWMAWINTETGEATHADDFKGRFDFSLDTSASTAYLQIKNLKNEDTGIYFCVCYGSSYGMDYWGQGTSVTVSS VL: DIVLTQSPASLPVSLGQRATISCRASKSVRTSGASYMHWYQQKPGQPPKLLIYLASNLKSGVPTRFSGSGSGTDFTLNIHPVEEEDAATYYCQHNREVPPTFGGGTKLEIK | – | – | binds | binding [4]: binds; binding [5]: binds; binding [6]: binds
anti-CD300LB antibody CD-10 (antibody, V domains shown) VH: QVQLQQSGPELVRPGVSVKISCKGSGYTFTDYAMHWVKQSHVRSREWIGVIGTYNGHTNYNQKFKGKATMTVDKSSSTAYLELARLTSEDSAIYYCARSGSYYYSMDYWGQGTSVTVSS VL: QIVLTQSPAIMSASPGEKVTMTCSASSSVNYMHWYQQKSGTSPKRWIYDTSKLSSGVPARFSGSGSGTSYSLTISTMEAEDAATYYCQQWSSNPPMTFGGGTKLEIK | – | – | binds | –
anti-CD300LB antibody CD-11 (antibody, V domains shown) VH: QIQLVQSGPEVKKPGETVKISCKASGYTLTDYSMHWVMQTPGTGLKWMAWMNTETGEPTYADDFKGRFAFSLETSAGTAYLQIDNLKNEDTATYFCATYGKSYGMKYWGQGTSVTVSS VL: DIVLTQSPPSLAVSLGQRATISCRATKSVSPYLHWYQQTPGQPPKLLIYLASNLDSGVPARFSGSGSGTDFTLNIHPVEEEDAATYYCQHNKELPPTFGGGTRLEIK | – | – | binds | –
anti-CD300LB antibody CD-15 (antibody, V domains shown) VH: QIQLVQSGPELKKPGETVKISCQVSGYTFTDYSMHWLKQAPGKGLKWMAWINTETGESTYTDEFKGRFVFSLETSVRTAYLKINNLKNEDTATYFCGTYGSSYGMAYWGQGTSVTVSS VL: DIVLTQSPASLPVSLGQRATISCRASKSVSTSGSSYLHWYQQKPGQPPKLLIYLASKLESGVPARFRGSGSGTDFTLNIHPVEEEDAATYYCQHNREVPPTFGGGTKLEIK | – | – | binds | –
anti-CD300LB antibody CD-16 (antibody, V domains shown) VH: QIQLVQSGPELKKPGETVKISCKASGYTFTDYSMHWVKQAPGKGLKWMAWINTETGEPTYADDFRGRFAFSLETSGRTAYLEINNLRNEDTATYFCVTYGSSYGMAYWGQGTSVTVSS VL: DIVLTQSPASLAVSLGQRATISCRASKSVSRSGYSYLHWYQQKPGQPPKLLIYLASKLESGVPARFSGSGSGTDFTLNIHPVEAEDAATYYCQHNREIPPTFGGGTKLEIK | – | – | binds | –
anti-CD300LB antibody CD-17 (antibody, V domains shown) VH: QIQLVQSGPELKKPGETVKISCKASGYTLTDYSMHWVKQAPGKGLKWMGWINTETGEPRYGDDFKGRFAFSLETSASSAYLQINNLKNDDTATYFCATYGRSYGMDFWGQGTSVTVSS VL: DIVLTQSPASLAVSLGQRATISCRASKSVSPSGHSYMHWYQQKPGQPPKLLIYLASNLKSGVPARFSGSGSGTDFTLNIHPVEEGDAATYYCQHNRELPPTFGGGSKLEIK | – | – | binds | –
